B1: GFP-KDM2A (amino acids 667–1162) (domain or fragment, UniProt Q9Y2K7-1 667-1162)
chain: PNCWECPKCYQEDSSEKAQKRKMEESDEEAVQAKVLRPLRSCDEPLTPPPHSPTSMLQLIHDPVSPRGMVTRSSPGAGPSDHHSASRDERFKRRQLLRLQATERTMVREKENNPSGKKELSEVEKAKIRGSYLTVTLQRPTKELHGTSIVPKLQAITASSANLRHSPRVLVQHCPARTPQRGDEEGLGGEEEEEEEEEEEDDSAEEGGAARLNGRGSWAQDGDESWMQREVWMSVFRYLSRRELCECMRVCKTWYKWCCDKRLWTKIDLSRCKAIVPQALSGIIKRQPVSLDLSWTNISKKQLTWLVNRLPGLKDLLLAGCSWSAVSALSTSSCPLLRTLDLRWAVGIKDPQIRDLLTPPADKPGQDNRSKLRNMTDFRLAGLDITDATLRLIIRHMPLLSRLDLSHCSHLTDQSSNLLTAVGSSTRYSLTELNMAGCNKLTDQTLIYLRRIANVTLIDLRGCKQITRKACEHFISDLSINSLYCLSDEKLIQKIS
B2: GFP fusion of KDM2A (amino acids 822–898) (domain or fragment, UniProt Q9Y2K7-1 822-898)
chain: ITASSANLRHSPRVLVQHCPARTPQRGDEEGLGGEEEEEEEEEEEDDSAEEGGAARLNGRGSWAQDGDESWMQREVW
B3: GFP fusion of KDM2A (amino acids 822–946) (domain or fragment, UniProt Q9Y2K7-1 822-946)
chain: ITASSANLRHSPRVLVQHCPARTPQRGDEEGLGGEEEEEEEEEEEDDSAEEGGAARLNGRGSWAQDGDESWMQREVWMSVFRYLSRRELCECMRVCKTWYKWCCDKRLWTKIDLSRCKAIVPQAL
B4: GFP fusion of KDM2A (amino acids 893–946) (domain or fragment, UniProt Q9Y2K7-1 893-946)
chain: MQREVWMSVFRYLSRRELCECMRVCKTWYKWCCDKRLWTKIDLSRCKAIVPQAL
B5: KDM2A (amino acids 1–824) (domain or fragment, UniProt Q9Y2K7-1 1-824)
chain: MEPEEERIRYSQRLRGTMRRRYEDDGISDDEIEGKRTFDLEEKLHTNKYNANFVTFMEGKDFNVEYIQRGGLRDPLIFKNSDGLGIKMPDPDFTVNDVKMCVGSRRMVDVMDVNTQKGIEMTMAQWTRYYETPEEEREKLYNVISLEFSHTRLENMVQRPSTVDFIDWVDNMWPRHLKESQTESTNAILEMQYPKVQKYCLMSVRGCYTDFHVDFGGTSVWYHIHQGGKVFWLIPPTAHNLELYENWLLSGKQGDIFLGDRVSDCQRIELKQGYTFVIPSGWIHAVYTPTDTLVFGGNFLHSFNIPMQLKIYNIEDRTRVPNKFRYPFYYEMCWYVLERYVYCITNRSHLTKEFQKESLSMDLELNGLESGNGDEEAVDREPRRLSSRRSVLTSPVANGVNLDYDGLGKTCRSLPSLKKTLAGDSSSDCSRGSHNGQVWDPQCAPRKDRQVHLTHFELEGLRCLVDKLESLPLHKKCVPTGIEDEDALIADVKILLEELANSDPKLALTGVPIVQWPKRDKLKFPTRPKVRVPTIPITKPHTMKPAPRLTPVRPAAASPIVSGARRRRVRCRKCKACVQGECGVCHYCRDMKKFGGPGRMKQSCVLRQCLAPRLPHSVTCSLCGEVDQNEETQDFEKKLMECCICNEIVHPGCLQMDGEGLLNEELPNCWECPKCYQEDSSEKAQKRKMEESDEEAVQAKVLRPLRSCDEPLTPPPHSPTSMLQLIHDPVSPRGMVTRSSPGAGPSDHHSASRDERFKRRQLLRLQATERTMVREKENNPSGKKELSEVEKAKIRGSYLTVTLQRPTKELHGTSIVPKLQAITA
B6: KDM2A (amino acids 1–732)-GFP (domain or fragment, UniProt Q9Y2K7-1 1-732)
chain: MEPEEERIRYSQRLRGTMRRRYEDDGISDDEIEGKRTFDLEEKLHTNKYNANFVTFMEGKDFNVEYIQRGGLRDPLIFKNSDGLGIKMPDPDFTVNDVKMCVGSRRMVDVMDVNTQKGIEMTMAQWTRYYETPEEEREKLYNVISLEFSHTRLENMVQRPSTVDFIDWVDNMWPRHLKESQTESTNAILEMQYPKVQKYCLMSVRGCYTDFHVDFGGTSVWYHIHQGGKVFWLIPPTAHNLELYENWLLSGKQGDIFLGDRVSDCQRIELKQGYTFVIPSGWIHAVYTPTDTLVFGGNFLHSFNIPMQLKIYNIEDRTRVPNKFRYPFYYEMCWYVLERYVYCITNRSHLTKEFQKESLSMDLELNGLESGNGDEEAVDREPRRLSSRRSVLTSPVANGVNLDYDGLGKTCRSLPSLKKTLAGDSSSDCSRGSHNGQVWDPQCAPRKDRQVHLTHFELEGLRCLVDKLESLPLHKKCVPTGIEDEDALIADVKILLEELANSDPKLALTGVPIVQWPKRDKLKFPTRPKVRVPTIPITKPHTMKPAPRLTPVRPAAASPIVSGARRRRVRCRKCKACVQGECGVCHYCRDMKKFGGPGRMKQSCVLRQCLAPRLPHSVTCSLCGEVDQNEETQDFEKKLMECCICNEIVHPGCLQMDGEGLLNEELPNCWECPKCYQEDSSEKAQKRKMEESDEEAVQAKVLRPLRSCDEPLTPPPHSPTSMLQLIHDPVSP

The chains behind the UniProt entries cited, without tags or fusion partners.
UniProt Q9UPP1: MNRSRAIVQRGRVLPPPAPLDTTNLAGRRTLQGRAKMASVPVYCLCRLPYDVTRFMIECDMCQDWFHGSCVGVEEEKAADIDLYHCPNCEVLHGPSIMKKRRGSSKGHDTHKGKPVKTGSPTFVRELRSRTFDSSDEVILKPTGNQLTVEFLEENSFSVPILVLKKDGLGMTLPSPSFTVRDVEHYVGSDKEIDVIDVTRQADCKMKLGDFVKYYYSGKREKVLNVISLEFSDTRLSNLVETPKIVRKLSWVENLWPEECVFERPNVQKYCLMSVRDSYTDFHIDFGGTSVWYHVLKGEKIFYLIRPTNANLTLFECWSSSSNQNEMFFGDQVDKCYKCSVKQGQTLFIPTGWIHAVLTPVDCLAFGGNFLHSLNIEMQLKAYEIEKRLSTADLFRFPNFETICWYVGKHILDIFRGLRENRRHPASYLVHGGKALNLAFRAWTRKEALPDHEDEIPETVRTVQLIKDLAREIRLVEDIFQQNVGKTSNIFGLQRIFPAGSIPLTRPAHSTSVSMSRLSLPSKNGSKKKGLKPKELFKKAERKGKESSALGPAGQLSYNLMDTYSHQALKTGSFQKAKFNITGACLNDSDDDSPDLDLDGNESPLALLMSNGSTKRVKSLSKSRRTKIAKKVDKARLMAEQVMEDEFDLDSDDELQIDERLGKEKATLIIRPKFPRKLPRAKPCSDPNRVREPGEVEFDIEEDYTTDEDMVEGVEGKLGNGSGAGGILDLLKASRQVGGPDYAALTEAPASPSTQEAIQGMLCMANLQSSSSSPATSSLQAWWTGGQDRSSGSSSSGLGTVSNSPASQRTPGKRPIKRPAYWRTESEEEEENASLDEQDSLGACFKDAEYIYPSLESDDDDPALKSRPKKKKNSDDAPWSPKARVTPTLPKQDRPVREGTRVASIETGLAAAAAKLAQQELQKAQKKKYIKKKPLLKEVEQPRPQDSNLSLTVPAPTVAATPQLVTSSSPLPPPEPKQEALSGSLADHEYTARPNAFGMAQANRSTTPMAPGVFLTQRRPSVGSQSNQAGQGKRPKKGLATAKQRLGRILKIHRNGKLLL

These are yes or no findings as the source states them, for the method shown. In cells and extracts the contact can be indirect. Some binding calls cover weakened binding; strength is not graded here. Tags and fused reporters may be left off the sequences shown.

The target of the experiment is Flag-tagged PHF8 (PHD finger protein 8) (UniProt Q9UPP1). In words: co-IP; Flag-PHF8 co-expressed with KDM2A or KDM2A constructs in 293T cells; lysates in IP buffer (0.1% Triton X-100, 300 mM NaCl, 300 mM sucrose, 1 mM MgCl2, 1 mM EGTA, 10 mM PIPES pH 7.0) precipitated with anti-Flag M2 agarose; Western blot with anti-KDM2A or anti-GFP; in Figure 4A cells with or without 2 mM 2DG for 2 h. For orientation: Immunoblotting shows a protein as a band on a membrane.
Turning to B1, the binding entry is given as “binds”.
Take B2: the binding entry is listed as “no binding”.
For B3, the binding entry is recorded as “binds”.
For the molecule B4, the binding entry is “no binding”.
Consider ANVTLIDLRGCKQITRKACEHFISDLSINSLYCLSDEKLIQKIS (domain or fragment, UniProt Q9Y2K7-1 1119-1162) [GFP fusion of KDM2A (amino acids 1119–1162)], for which the binding result is “binds”.
Regarding B5, the binding entry is “binds weakly”.
B6: the binding entry is on record as “binds weakly”.

The record behind these values is PMC12109296.
